Assay results: US20240209112A1 (GENOME, published 2024)
No constants are given. Whether binding was seen depends on the method and setting. Some entries that bind do so weakly or less than the wild type.

Columns and labels:
[1] = biological target: T1, Human BCAM (amine-coupled to AR2G biosensors) (human) (UniProt P50895); test: BLI (Octet QK)
T1 sequence (looked up): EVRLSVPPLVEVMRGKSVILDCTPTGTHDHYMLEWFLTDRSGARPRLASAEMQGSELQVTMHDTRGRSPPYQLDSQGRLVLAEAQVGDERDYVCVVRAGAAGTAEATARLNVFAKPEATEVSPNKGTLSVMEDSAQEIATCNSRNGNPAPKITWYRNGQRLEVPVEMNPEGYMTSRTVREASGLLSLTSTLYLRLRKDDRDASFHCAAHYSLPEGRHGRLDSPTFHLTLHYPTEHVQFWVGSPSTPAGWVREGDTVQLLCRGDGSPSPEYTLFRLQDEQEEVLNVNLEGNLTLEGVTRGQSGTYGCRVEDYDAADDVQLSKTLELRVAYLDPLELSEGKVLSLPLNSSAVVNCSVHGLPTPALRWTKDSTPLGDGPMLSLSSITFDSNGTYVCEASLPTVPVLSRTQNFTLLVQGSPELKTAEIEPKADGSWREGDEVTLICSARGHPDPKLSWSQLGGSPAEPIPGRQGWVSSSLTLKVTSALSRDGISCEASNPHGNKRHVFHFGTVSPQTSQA

[2] = biological target: T2, BCAM protein (antigenic protein coated in the ELISA) (UniProt P50895); test: ELISA on coated BCAM protein
T2 sequence (looked up): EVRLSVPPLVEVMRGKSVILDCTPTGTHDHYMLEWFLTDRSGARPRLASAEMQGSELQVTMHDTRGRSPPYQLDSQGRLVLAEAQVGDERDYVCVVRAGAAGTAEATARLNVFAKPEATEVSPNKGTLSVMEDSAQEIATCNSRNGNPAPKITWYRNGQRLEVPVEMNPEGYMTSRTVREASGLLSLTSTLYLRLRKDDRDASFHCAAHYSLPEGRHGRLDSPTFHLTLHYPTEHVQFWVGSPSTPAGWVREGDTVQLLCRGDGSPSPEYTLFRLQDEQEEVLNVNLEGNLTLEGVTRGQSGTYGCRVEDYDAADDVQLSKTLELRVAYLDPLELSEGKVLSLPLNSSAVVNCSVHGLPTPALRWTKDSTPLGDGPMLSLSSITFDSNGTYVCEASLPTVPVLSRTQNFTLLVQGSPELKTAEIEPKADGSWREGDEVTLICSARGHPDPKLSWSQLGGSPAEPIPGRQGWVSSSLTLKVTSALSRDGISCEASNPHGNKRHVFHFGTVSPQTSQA

[3] = biological target: T3, Human BCAM expressed on transfected HEK293FT cells (human) (UniProt P50895); test: flow cytometry on HEK293FT cells transfected with human BCAM, detected with AlexaFluor 647 goat anti-human IgG
T3 sequence (looked up): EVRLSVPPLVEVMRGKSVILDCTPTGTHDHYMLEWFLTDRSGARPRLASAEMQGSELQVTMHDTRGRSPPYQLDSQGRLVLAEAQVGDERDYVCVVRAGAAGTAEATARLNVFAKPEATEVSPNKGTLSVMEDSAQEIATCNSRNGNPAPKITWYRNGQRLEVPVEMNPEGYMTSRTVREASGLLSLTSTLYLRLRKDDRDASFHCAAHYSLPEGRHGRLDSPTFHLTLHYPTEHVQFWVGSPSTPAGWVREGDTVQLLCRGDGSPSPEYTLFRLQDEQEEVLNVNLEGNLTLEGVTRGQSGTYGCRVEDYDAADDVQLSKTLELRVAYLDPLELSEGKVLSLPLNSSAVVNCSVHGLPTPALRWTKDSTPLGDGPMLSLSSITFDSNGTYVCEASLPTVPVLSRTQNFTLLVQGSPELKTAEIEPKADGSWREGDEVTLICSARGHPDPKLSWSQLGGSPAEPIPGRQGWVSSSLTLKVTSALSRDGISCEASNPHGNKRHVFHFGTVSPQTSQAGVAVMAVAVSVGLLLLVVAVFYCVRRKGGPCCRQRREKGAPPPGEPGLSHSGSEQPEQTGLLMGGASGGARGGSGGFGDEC

[4] = biological target: T1, Human BCAM (amine-coupled to AR2G biosensors) (human); test: BLI (Octet), human BCAM amine-coupled to AR2G biosensors, antibody in solution at serial dilutions

Measured: binding

B1: anti-BCAM human IgG4 antibody 111a (antibody, V domains shown)
VH: QVTLKESGPGLVKPSGTLSLTCAVSGGSISSSNWWSWVRQPPGKGLEWIGEIYHSGSTNYNPSLKSRVTISVDKSKNQFSLKLSSVTAADTAVYYCARAYTVTTTYFDYWGQGTLVTVSS
VL: NIQMTQSPSTLSASVGDRVTITCRASQSMSTWLAWYQQKPGRAPKLLIYKASALETGVPSRFSGSGSGTQFTLTISSLQPDDFATYYCQQYDEFASFGQGTKVEIK
notes: Derived from a human scFv phage library; also called 11la
binds: all assays above

B2: anti-BCAM human IgG4 antibody 111c (antibody, V domains shown)
VH: EVQLVQSGGGLVKPGGSLRLSCAASGFTFSDYYMSWIRQAPGKGLEWVSYTSSSGSTIYYADSVKGRFTISRDNAKNSLYLQMNSLRAEDTAVYYCARDITAFDIWGQGTMVTVSS
VL: LPVLTQPPSASGSPGQSVTISCTGTSSDVGGYNYVSWYQQHPGKAPKLMIYEVNKRPSGVPDRFSGSKSGNTASLTVSGLQAEDEADYYCCSYAGSNNYVFGTGTKVTVL
binds: all assays above

B3: anti-BCAM human IgG4 antibody 111b (antibody, V domains shown)
VH: EVQLVQSGAEVKKPGASVKVSCKASGYTFTSYYMHWVRQAPGQGLEWMGIINPSGGSTSYAQKFQGRVTMTRDTSTSTVYMELSSLRSEDTAVYYCARDGKGWDYYGSGSPLQYWGQGTLVTVSS
VL: LPVLTQPPSVSKGLRQTATLTCTGNSNNVGNQGAAWLQQHQGHPPKLLSYRNNDRPSGISERLSASRSGNTASLTITGLQPEDEADYYCSAWDSSLSAWVFGGGTKLTVL
binds: all assays above
